The supplement of paper PMC3334620
Over roughly 33,000 sequences, “E-score (-0.5 to 0.5)” has its median near -0.0034; the highest 2% begin near 0.25. The list shows a part of the results.

molecular target: T1, Yap3 (UniProt P38749); test: PBM E-score (8-mer binding enrichment) (E-score (-0.5 to 0.5)); higher = stronger / more preferred TF binding; settings: protein concentration: 100 nM; construct: GST-full length
T1 sequence: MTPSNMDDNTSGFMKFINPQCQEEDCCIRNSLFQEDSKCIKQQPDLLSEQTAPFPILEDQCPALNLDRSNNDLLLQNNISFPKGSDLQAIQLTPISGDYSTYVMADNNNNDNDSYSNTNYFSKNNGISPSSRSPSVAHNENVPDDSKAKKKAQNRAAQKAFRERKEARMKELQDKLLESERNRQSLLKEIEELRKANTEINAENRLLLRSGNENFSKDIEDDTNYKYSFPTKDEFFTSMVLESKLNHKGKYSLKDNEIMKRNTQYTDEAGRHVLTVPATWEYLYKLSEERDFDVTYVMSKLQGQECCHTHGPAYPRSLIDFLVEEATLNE
How it was run: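 Yeast transcription factors carrying a GST tag, as full-length proteins or DNA-binding domains, were produced by PURExpress in vitro transcription/translation. About 100-200 nM protein was applied to universal all-10-mer Agilent arrays, double-stranded by primer extension on fresh or once-stripped slides. Bound protein was detected with fluorescent anti-GST, and scans were normalised with masliner. The Universal PBM Analysis Suite gave each ungapped eight-base word, pooled with its reverse complement, an E-score, a modified Wilcoxon-Mann-Whitney statistic.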

Row | Sequence | PBM E-score
1 | CTTGATCC | -0.0163
2 | AAATGGTA | 0.236
3 | GTTCACAA | 0.043
4 | CCTTAGAA | -0.00274
5 | ATGGTTCA | 0.105
6 | CGGAAGGA | -0.213
7 | ACTGATAC | -0.0341
8 | AAATCTGC | -0.0149
9 | GCTCGCCC | -0.132
10 | ATTGACAC | -0.0406
11 | CTGAGCGC | -0.129
12 | AAGGAGTC | -0.29
13 | AACCCGTA | -0.0887
14 | CTAGCATA | 0.0488
15 | GATAACTA | 0.169
16 | AAACCGGT | -0.0491
17 | CCGGTTCA | -0.159
18 | CGTCCGGC | -0.0999
19 | AGCGTAGG | -0.122
20 | GAAGAGGC | -0.225
21 | ATCCAACC | 0.00913
22 | GAGGTCAA | -0.115
23 | GCGGTCCA | -0.366
24 | GCTAATGA | 0.0606
25 | AGGCCTAT | -0.0769

Row | Sequence | PBM E-score
26 | CGAGCTAA | -0.0581
27 | GATGCAAA | 0.0581
28 | GCTGAGAC | -0.0631
29 | GCCGGGTA | -0.271
30 | AGACGGCT | -0.174
31 | GTATAACA | 0.133
32 | ACACTTGC | 0.0282
33 | GATGCCGA | -0.0397
34 | GGCGTGAC | -0.199
35 | GCTGGAGA | -0.248
36 | AACATCCT | 0.105
37 | AGAGACCT | -0.135
38 | CCATGATA | 0.111
39 | ATACTCAG | 0.206
40 | ACATAAGC | 0.153
41 | GTGCACCA | 0.0369
42 | TGTTAACA | 0.14
43 | ACTTTTAG | 0.0851
44 | CATCTAGA | 0.0489
45 | ATGGTCGC | -0.128
46 | CATTGGCC | -0.235
47 | CCTACCCA | -0.0774
48 | GGATATAA | 0.164
49 | TCCCTCAA | -0.107
50 | GCTAGGAC | -0.11

Row | Sequence | PBM E-score
51 | ACGTGTCG | -0.0456
52 | GATTCGGA | 0.247
53 | GGTTCTTA | 0.095
54 | AGATCACT | 0.0687
55 | CGACACAA | -0.062
56 | GCTGCGAA | 0.1
57 | ACACAGCC | 0.00152
58 | AGGTCGTC | -0.121
59 | AAGTACTT | -0.202
60 | AATCACAT | 0.148
61 | GGCCGGGA | -0.187
62 | CAGATAGC | -0.148
63 | TACGTCTA | 0.0516
64 | GCCTCGGA | -0.126
65 | GACTCTCA | -0.0203
66 | ACACACAT | 0.148
67 | CAGTTGAG | -0.182
68 | CTAAGAGA | -0.112
69 | AAGCTGAG | 0.0158
70 | TATAGTCA | 0.167
71 | GTATGGTA | 0.13
72 | CCAGACTC | -0.15
73 | GACAGTAC | 0.0123
74 | GAGAGCAC | -0.0454
75 | CCCCTAGG | -0.213

Some of the entries so far, tab-delimited.
Row	Sequence	PBM E-score
54	AGATCACT	0.0687
56	GCTGCGAA	0.1
57	ACACAGCC	0.00152
62	CAGATAGC	-0.148
71	GTATGGTA	0.13

(next part)

Row | Sequence | PBM E-score
76 | CGAGAACC | -0.00819
77 | AAGTTACG | 0.202
78 | AGATCGCG | 0.0544
79 | GCAGAAAC | 0.057
80 | GCTAGATA | 0.0845
81 | GACACGCA | 0.017
82 | ACTAAAAG | 0.0215
83 | CAGGACCC | -0.258
84 | CGCAGTGA | -0.0281
85 | GTAGATAC | -0.0029
86 | CACCACTA | 0.138
87 | GCAGGTCC | -0.152
88 | CCAGGACG | -0.117
89 | ACATGACG | 0.0689
90 | CCACGAAC | 0.0833
91 | ATTGTAAC | 0.16
92 | AAGACGGC | -0.0667
93 | GAGTGCAA | 0.115
94 | GAATCTAC | -0.164
95 | CTTAGTTC | -0.0308
96 | ACCGTTCT | 0.0263
97 | CGCAATGC | -0.0367
98 | ACCACAGT | 0.143
99 | ATGTTATG | 0.241
100 | TCAAAGGA | 0.0165

As entered above:
ACTAAAAG | PBM E-score: 0.0215
GACACGCA | PBM E-score: 0.017
GCAGGTCC | PBM E-score: -0.152
CCACGAAC | PBM E-score: 0.0833
GTAGATAC | PBM E-score: -0.0029
AGATCGCG | PBM E-score: 0.0544
GAGTGCAA | PBM E-score: 0.115

(next part)

Row | Sequence | PBM E-score
101 | GTACGATA | 0.126
102 | AACGTTTA | 0.114
103 | GCCACTCC | -0.113
104 | AGCCCGTA | -0.194
105 | ACGAAGAA | 0.282
106 | ATTCACAG | 0.0188
107 | ATGAGAGG | -0.161
108 | AGAGCTTG | -0.0861
109 | CCCGTCGC | -0.0569
110 | AAACACCC | 0.0336
111 | ACGGAATA | 0.175
112 | ACGCCGGA | -0.21
113 | CCCCAAGG | -0.132
114 | CTGCTTCA | -0.184
115 | CAAAATTA | 0.163
116 | AAATCCAC | 0.0662
117 | GTTGCACA | -0.147
118 | CCAACTGA | -0.00042
119 | AAACATGT | 0.251
120 | CGTCATAA | 0.155
121 | CCTGGTCG | -0.188
122 | CCAAGTAG | -0.101
123 | CGAGATTC | 0.0556
124 | CATGATAC | 0.166
125 | CTGGCTGC | -0.235

Row | Sequence | PBM E-score
126 | CGTCCCTA | -0.206
127 | AGGCAAGC | -0.0963
128 | ATATACTG | 0.213
129 | ATTTTTTC | 0.113
130 | CGAATGAA | -0.0326
131 | GGACAGCA | -0.0442
132 | GAGACCCC | -0.195
133 | ATTTCCTG | 0.202
134 | CTTTTGCC | 0.177
135 | CCAAGGAA | -0.183
136 | AATTTTGA | 0.169
137 | GATCAGTA | 0.132
138 | AGACTTTG | -0.0746
139 | AGGGGGGG | -0.444
140 | ACTGCTAG | -0.159
141 | GATAAAAA | 0.192
142 | CCCGTCGA | -0.172
143 | AAAGTGTC | -0.0685
144 | ACTATGGA | -0.114
145 | ACCTCATA | 0.0723
146 | AGAGCTCA | -0.109
147 | GCGATCGC | 0.191
148 | GGAGGTAA | 0.028
149 | CTCGTGTA | 0.00396
150 | ATGTGTAG | 0.18

Row | Sequence | PBM E-score
151 | CGAAACTA | 0.0831
152 | GGTCATGA | 0.0536
153 | CAGGTGAC | -0.153
154 | CGGTCCTC | -0.175
155 | CGATTTGC | -0.0862
156 | ATACCTGA | 0.131
157 | CTCATAAA | 0.0264
158 | CCTAGACA | -0.257
159 | ATCTATGA | 0.105
160 | AGGCCCCG | -0.275
161 | ATCTAGAG | -0.00421
162 | AGTGCAAT | 0.181
163 | CCTCGCGC | -0.0548
164 | ATTGGTCG | 0.0921
165 | GGGACAGA | -0.139
166 | GATTACAA | 0.154
167 | CCGGCGCA | -0.113
168 | CAAGACAC | 0.0732
169 | CGTACTCA | 0.0699
170 | CGCGACGC | -0.0221
171 | TCAAGCGA | -0.0261
172 | ACAATGAA | 0.143
173 | GGCTTGAC | 0.0242
174 | CCCCCCAG | -0.435
175 | CGCTGTGA | -0.0572

Row | Sequence | PBM E-score
176 | AGCCGGTA | -0.0519
177 | ACGTTCCC | -0.0647
178 | ATTAATTG | 0.245
179 | CCAATAGC | -0.2
180 | CTGGACAG | -0.104
181 | CACACCTC | 0.102
182 | AAACGATA | 0.0765
183 | ATTTTAGG | 0.0901
184 | ATGGGAAG | -0.129
185 | AACTTGTG | 0.241
186 | AGAATCTA | -0.0155
187 | CGTCCAAA | 0.0569
188 | CTGACGAC | 0.0156
189 | ATATGTTA | 0.115
190 | TACCCTGA | -0.0597
191 | CTTGCAAG | -0.104
192 | ATAGCGTA | 0.12
193 | AATGAGGA | -0.0149
194 | ACAGCATC | 0.0911
195 | AAACACAA | 0.213
196 | ACACGCCG | 0.0508
197 | GTGCCCGA | -0.123
198 | AAGTACTG | 0.0174
199 | CTTGCGTA | 0.0672
200 | AGACGCGA | 0.0808

Numbers 185 to 187 of the list above:
Row | Sequence | PBM E-score
185 | AACTTGTG | 0.241
186 | AGAATCTA | -0.0155
187 | CGTCCAAA | 0.0569

Next part.

Row | Sequence | PBM E-score
201 | ACATCCCG | 0.0992
202 | ACTTGTCA | 0.0442
203 | AAAAGTAG | 0.105
204 | CGGAGGAC | -0.182
205 | AACGGGTA | 0.0762
206 | AGAGTGAG | 0.0371
207 | CACCGACA | -0.0733
208 | AGCAAGAC | -0.0111
209 | ACGCTCAA | 0.113
210 | CGCGCCCG | -0.239
211 | AGCACAAG | -0.099
212 | CTGCCACA | -0.0726
213 | CGCAAATC | 0.159
214 | CGACTGTC | -0.128
215 | CGCCGCAC | -0.156
216 | AAGCCTGT | 0.00346
217 | CAGGCTAA | -0.0677
218 | CGAAAACA | 0.0677
219 | GTTACCTA | 0.0338
